Assay results reported in publication PMC12386978.
Where a chain is given by its changes, count along the chain named. Results are given in words; binding and its absence hold for the method and conditions named. Binding seen in cells or lysates may run through a third protein. Some results given as binding are weak or reduced against the parent protein; the word gives no strength. Where a sequence is shown, tags or fusion partners need not be part of it. Values belong to the binder of their own block, whether it stands above or below them.

How the values were obtained:
[1] = biological target: T1, NLuc-mCRY1 K151Q (mouse (printed as mCRY1)) (UniProt P97784); experiment: split reporter; split-luciferase complementation; HEK293T cells co-transfected with NLuc-mCRY1 (wild-type or mutant) and a CLuc fusion of the partner; bioluminescence read 24 h after transfection in DMEM with 100 uM D-luciferin
T1 sequence: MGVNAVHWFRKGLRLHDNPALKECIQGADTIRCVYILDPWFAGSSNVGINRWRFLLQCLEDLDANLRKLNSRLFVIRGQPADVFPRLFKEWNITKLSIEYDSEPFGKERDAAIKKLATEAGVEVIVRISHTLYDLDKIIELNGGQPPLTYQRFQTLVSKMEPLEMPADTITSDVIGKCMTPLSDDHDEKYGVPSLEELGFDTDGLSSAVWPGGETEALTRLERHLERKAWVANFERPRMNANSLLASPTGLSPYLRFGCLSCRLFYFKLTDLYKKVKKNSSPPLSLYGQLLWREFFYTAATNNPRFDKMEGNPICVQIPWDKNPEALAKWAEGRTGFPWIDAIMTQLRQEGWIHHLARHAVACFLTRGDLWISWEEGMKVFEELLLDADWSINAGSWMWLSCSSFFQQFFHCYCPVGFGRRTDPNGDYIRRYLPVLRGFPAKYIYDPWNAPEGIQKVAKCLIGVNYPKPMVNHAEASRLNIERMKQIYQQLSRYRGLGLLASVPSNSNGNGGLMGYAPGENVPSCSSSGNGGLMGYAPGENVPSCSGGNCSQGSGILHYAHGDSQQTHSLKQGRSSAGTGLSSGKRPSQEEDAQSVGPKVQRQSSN

[2] = biological target: T2, NLuc-mCRY1 (wild-type) (mouse (printed as mCRY1)) (UniProt P97784); experiment: as above
T2 sequence: T1 sequence with Q151K

[3] = biological target: T3, NLuc-mCRY1 K151R (mouse (printed as mCRY1)) (UniProt P97784); experiment: as above
T3 sequence: T1 sequence with Q151R

[4] = biological target: T4, FLAG-CRY1 K151R (mouse (printed as mCRY1)) (UniProt P97784); experiment: co-IP; HEK293T co-transfected with FLAG-CRY1 and HA-FBXL21 or HA-BMAL1; 20 uM MG132 for 6 h before harvest; lysis in 25 mM Tris-HCl pH 7.6, 150 mM NaCl, 1% NP-40, 0.5 mM EDTA; anti-FLAG antibody overnight at 4 C, protein A/G magnetic beads; blots with anti-HA and anti-FLAG
T4 sequence: T1 sequence with Q151R

[5] = biological target: T5, FLAG-CRY1 K151Q (mouse (printed as mCRY1)) (UniProt P97784); experiment: as above
T5 sequence: T1 sequence

[6] = biological target: T6, FLAG-CRY1 (WT) (mouse (printed as mCRY1)) (UniProt P97784); experiment: as above
T6 sequence: T1 sequence with Q151K

binding [1]: binds
binding [2]: binds
binding [3]: binds
B1: CLuc-FBXL21 (protein, UniProt Q8BFZ4 1-434)
chain: MKRNNFSAVNKVVQSSPVVKQPKRGLCSSLRQTHALSVLLDWGTLPHHVILQIFQYLPLIDRARASSVCRRWNEVFHIPDLWRKFEFELNQSATSYFKSTHPDLIQQIIKKHAAHLQYVSFKVDSSTESAEAACDILSQLVNCSIQTLGLISTAKPSFMNVPKSHFVSALTVVFVNSKSLSSIKIEDTPVDDPSLKILVANNSDTLRLLKMSSCPHVSSDGILCVADHCQGLRELALNYYILSDEILLALSSETHVNLEHLRIDVVSENPGQIKFHSIKKRSWDALIKHSPRVNVVMYFFLYEEEFEAFFKEETPVTHLYFGRSVSRAILGRIGLNCPRLIELVVCANGLLPLDSELIRIAKHCKNLTSLGLSECEVSCSAFVEFVRLCGRRLTQLSIMEEVLVPDDRYTPDEVHTEVSKHLGRVWFPDVMPIW

binding [4]: binds
binding [5]: binds
binding [6]: binds
B2: HA-FBXL21 (protein, UniProt Q8BFZ4 1-434)
chain: B1 chain

binding [1]: binds
binding [2]: binds
binding [3]: binds
B3: CLuc-FBXL3 (protein, UniProt Q8C4V4 1-428)
chain: MKRGGRDSDQDSAEEGTAEKPKRPRTTQERSQPCDWGNLLQDIVLHVFKYLPLLDRAHASQVCRNWNQVFHMPDLWRCFEFELNQPATSYLKATHPELIKQIIKRHSNHLQYVSFKVDSSKESAEAACDILSQLVNCSLKTLGLISTARPSFMDLPKSHFISALTVVFVNSKSLSSLKIDDTPVDDPSLKVLVANNSDTLKLLKMSSCPHVSPAGILCVADQCHGLRELALNYHLLSDELLLALSSEKHVRLEHLRIDVVSENPGQTHFHTIQKSSWDAFIKHSPKVNLVMYFFLYEEEFDPFFRYEIPATHLYFGRSVSKDVLGRVGMTCPRLVELVVCANGLRPLDEELIRIAERCKNLSAIGLGECEVSCSAFVEFVKMCGGRLSQLSIMEEVLIPDQKYSLEQIHWEVSKHLGRVWFPDMMPTW
